The list shows a part of the results. Rule as the data show it: active = 2-fold of DMSO or more and inactive = the rest. Single values of this set are uncertain. Some low values are a fixed figure set by the source, not a measured ratio.
Test system: CM7/1-hgem mouse ES cell-derived cardiomyocytes
Assay: maximal number of mAG-hGem(1/110)-positive cardiomyocytes over 96 h, fold-change vs DMSO; higher = more cardiomyocyte cell cycle activity
Conditions: 1 µM; 96 (max over 12 h time points) h

Row | SMILES | maximal number
1 | COc1ccc2cc3[n+](cc2c1OC)CCc1cc2c(cc1-3)OCO2 | inactive: 1
2 | O=C(O)c1cccnc1C(=O)O | inactive: 1
3 | Oc1ccc([C@H]2Oc3cc(O)cc(O)c3C[C@H]2O)cc1 | inactive: 1
4 | O=C1CC[C@@H](C(=O)N2CSC[C@H]2C(=O)O)N1 | active: 2
5 | O=C(O)[C@@H]1[C@H]2C[C@H]3c4[nH]c5ccccc5c4CCN3C[C@@H]2CC[C@@H]1O | inactive: 1
6 | CC(C)=CCCC1(C)C=Cc2c(O)c3c(c(CC=C(C)C)c2O1)OC12C(=CCCC1C(C)(C)O[C@@]2(C/C=C(\C)C(=O)O)C(=O)O)C3=O (some centres not stated) | inactive: 1
7 | C[C@H](CCC(=O)O)[C@H]1CC[C@H]2[C@@H]3[C@H](O)C[C@@H]4C[C@H](O)CC[C@]4(C)[C@H]3C[C@H](O)[C@]12C | inactive: 1
8 | C=C1CCC(C2CC(=O)OC2=O)C(=O)CCC2C1CC2(C)C (configuration not stated) | inactive: 1
9 | CCOc1ccc(C(=O)c2ccc(OC)c(O)c2O)cc1 | inactive: 0
10 | CC[C@H](C)[C@H]1O[C@]2(C=C[C@@H]1C)C[C@@H]1C[C@@H](C/C=C(\C)[C@@H](O[C@H]3C[C@H](OC)[C@@H](O[C@H]4C[C@H](OC)[C@@H](O)[C@H](C)O4)[C@H](C)O3)[C@@H](C)/C=C/C=C3\CO[C@@H]4[C@H](OC)C(C)=C[C@@H](C(=O)O1)[C@]34O)O2 | inactive: 1
11 | O=c1cccc2ccc(O)c(O)c2c1O | inactive: 1
12 | CC(=O)O[C@@H]1CC2C(C)(C)C(=O)C3OC3[C@]2(C)C2CC[C@@]3(C)[C@H](c4ccoc4)OC(=O)C4OC43[C@@]21C (some centres not stated) | inactive: 0.5

Retrieved by structure from the entries so far (two):
Row | SMILES | maximal number
6 | CC(C)=CCCC1(C)C=Cc2c(O)c3c(c(CC=C(C)C)c2O1)OC12C(=CCCC1C(C)(C)O[C@@]2(C/C=C(\C)C(=O)O)C(=O)O)C3=O (some centres not stated) | inactive: 1
7 | C[C@H](CCC(=O)O)[C@H]1CC[C@H]2[C@@H]3[C@H](O)C[C@@H]4C[C@H](O)CC[C@]4(C)[C@H]3C[C@H](O)[C@]12C | inactive: 1
